# Laboratory results taken from the supplement of paper PMC8728848.
# The other results are listed elsewhere or left out.
# Assays:
# Experiment in all cases: glycan array binding signal (z-score within array); higher = stronger binding
# Conditions in all cases: glycan notation: IUPAC condensed, linker removed
# [1] = target: GlcNAc(b1-3)Gal(b1-4)GlcNAc(b1-3)Gal(b1-4)GlcNAc(b1-2)Man(a1-3)[GlcNAc(b1-3)Gal(b1-4)GlcNAc(b1-3)Gal(b1-4)GlcNAc(b1-2)Man(a1-6)]Man(b1-4)GlcNAc(b1-4)[Fuc(a1-6)]GlcNAc
# Method in brief: (§1)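 Negative Z-scores can be read as non-binding. The Z-score is calculated within each array and then averaged across arrays of one protein sequence at different concentrations or buffers and across linkers. Arrays, 3228 in all, were curated from the Consortium for Functional Glycomics database and kept only where the protein sequence was available.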
# [2] = target: GlcNAc(b1-3)Gal(b1-4)GlcNAc(b1-3)Gal(b1-4)GlcNAc(b1-2)[GlcNAc(b1-3)Gal(b1-4)GlcNAc(b1-3)Gal(b1-4)GlcNAc(b1-6)]Man(a1-6)[GlcNAc(b1-3)Gal(b1-4)GlcNAc(b1-3)Gal(b1-4)GlcNAc(b1-2)Man(a1-3)]Man(b1-4)GlcNAc(b1-4)[Fuc(a1-6)]GlcNAc
# Method in brief: as §1
# [3] = target: GlcNAc(b1-3)Gal(b1-4)GlcNAc(b1-3)Gal(b1-4)GlcNAc(b1-3)Gal(b1-4)GlcNAc(b1-2)Man(a1-3)[GlcNAc(b1-3)Gal(b1-4)GlcNAc(b1-3)Gal(b1-4)GlcNAc(b1-3)Gal(b1-4)GlcNAc(b1-2)Man(a1-6)]Man(b1-4)GlcNAc(b1-4)GlcNAc
# Method in brief: as §1
# [4] = target: GlcNAc(b1-3)Gal(b1-4)GlcNAc(b1-3)Gal(b1-4)GlcNAc(b1-3)Gal(b1-4)GlcNAc(b1-2)Man(a1-3)[GlcNAc(b1-3)Gal(b1-4)GlcNAc(b1-3)Gal(b1-4)GlcNAc(b1-3)Gal(b1-4)GlcNAc(b1-2)Man(a1-6)]Man(b1-4)GlcNAc(b1-4)[Fuc(a1-6)]GlcNAc
# Method in brief: as §1
# [5] = target: GlcNAc(b1-3)Gal(b1-4)GlcNAc(b1-3)Gal(b1-4)GlcNAc(b1-3)Gal(b1-4)GlcNAc(b1-2)[GlcNAc(b1-3)Gal(b1-4)GlcNAc(b1-3)Gal(b1-4)GlcNAc(b1-3)Gal(b1-4)GlcNAc(b1-6)]Man(a1-6)[GlcNAc(b1-3)Gal(b1-4)GlcNAc(b1-3)Gal(b1-4)GlcNAc(b1-3)Gal(b1-4)GlcNAc(b1-2)Man(a1-3)]Man(b1-4)GlcNAc(b1-4)[Fuc(a1-6)]GlcNAc
# Method in brief: as §1
# [6] = target: GlcNAc(b1-3)Gal(b1-4)GlcNAc(b1-3)Gal(b1-4)GlcNAc(b1-3)Gal(b1-4)GlcNAc(b1-3)Gal(b1-4)GlcNAc(b1-2)Man(a1-3)[GlcNAc(b1-3)Gal(b1-4)GlcNAc(b1-3)Gal(b1-4)GlcNAc(b1-3)Gal(b1-4)GlcNAc(b1-3)Gal(b1-4)GlcNAc(b1-2)Man(a1-6)]Man(b1-4)GlcNAc(b1-4)GlcNAc
# Method in brief: as §1
# [7] = target: GlcNAc(b1-3)Gal(b1-4)GlcNAc(b1-3)Gal(b1-4)GlcNAc(b1-3)Gal(b1-4)GlcNAc(b1-3)Gal(b1-4)GlcNAc(b1-2)Man(a1-3)[GlcNAc(b1-3)Gal(b1-4)GlcNAc(b1-3)Gal(b1-4)GlcNAc(b1-3)Gal(b1-4)GlcNAc(b1-3)Gal(b1-4)GlcNAc(b1-2)Man(a1-6)]Man(b1-4)GlcNAc(b1-4)[Fuc(a1-6)]GlcNAc
# Method in brief: as §1
# [8] = target: GlcNAc(b1-3)Gal(b1-4)GlcNAc(b1-3)Gal(b1-4)GlcNAc(b1-3)Gal(b1-4)GlcNAc(b1-3)Gal(b1-4)GlcNAc(b1-2)[GlcNAc(b1-3)Gal(b1-4)GlcNAc(b1-3)Gal(b1-4)GlcNAc(b1-3)Gal(b1-4)GlcNAc(b1-3)Gal(b1-4)GlcNAc(b1-6)]Man(a1-6)[GlcNAc(b1-3)Gal(b1-4)GlcNAc(b1-3)Gal(b1-4)GlcNAc(b1-3)Gal(b1-4)GlcNAc(b1-3)Gal(b1-4)GlcNAc(b1-2)Man(a1-3)]Man(b1-4)GlcNAc(b1-4)[Fuc(a1-6)]GlcNAc
# Method in brief: as §1
# [9] = target: GlcNAc(b1-3)Gal(b1-4)GlcNAc(b1-3)Gal(b1-4)GlcNAc(b1-3)GalNAc
# Method in brief: as §1
# [10] = target: GlcNAc(b1-3)Gal(b1-4)GlcNAc(b1-3)GalNAc
# Method in brief: as §1
# [11] = target: GlcNAc(b1-3)Gal(b1-4)GlcNAc(b1-3)[GlcNAc(b1-3)Gal(b1-4)GlcNAc(b1-3)]GalNAc
# Method in brief: as §1
# [12] = target: GlcNAc(b1-3)Gal(b1-4)GlcNAc(b1-6)[Gal(b1-3)]GalNAc
# Method in brief: as §1
# [13] = target: GlcNAc(b1-3)Gal(b1-4)GlcNAc(b1-6)[GlcNAc(b1-3)Gal(b1-3)]GalNAc
# Method in brief: as §1
# [14] = target: GlcNAc(b1-3)Gal(b1-4)GlcNAc(b1-6)[GlcNAc(b1-3)]Gal(b1-4)GlcNAc
# Method in brief: as §1
# [15] = target: GlcNAc(b1-3)GalNAc
# Method in brief: as §1
# [16] = target: GlcNAc(b1-3)Man
# Method in brief: as §1
# [17] = target: GlcNAc(b1-3)[GlcNAc(b1-4)][GlcNAc(b1-6)]GlcNAc
# Method in brief: as §1
# [18] = target: GlcNAc(b1-3)[GlcNAc(b1-6)]Gal(b1-4)GlcNAc
# Method in brief: as §1
# [19] = target: GlcNAc(b1-3)[GlcNAc(b1-6)]GalNAc
# Method in brief: as §1
# [20] = target: GlcNAc(b1-4)Gal(b1-4)GlcNAc
# Method in brief: as §1
# [21] = target: GlcNAc(b1-4)GlcNAc
# Method in brief: as §1
# [22] = target: GlcNAc(b1-4)GlcNAc(b1-4)GlcNAc
# Method in brief: as §1
# [23] = target: GlcNAc(b1-4)GlcNAc(b1-4)GlcNAc(b1-4)GlcNAc(b1-4)GlcNAc
# Method in brief: as §1
# [24] = target: GlcNAc(b1-4)GlcNAc(b1-4)GlcNAc(b1-4)GlcNAc(b1-4)GlcNAc(b1-4)GlcNAc
# Method in brief: as §1
# [25] = target: GlcNAc(b1-4)[GlcNAc(b1-6)]GalNAc
# Method in brief: as §1
# [26] = target: GlcNAc(b1-6)Gal(b1-4)GlcNAc
# Method in brief: as §1
# [27] = target: GlcNAc(b1-6)GalNAc
# Method in brief: as §1
# [28] = target: GlcNAc6S(b1-3)Gal(b1-4)GlcNAc
# Method in brief: as §1
# [29] = target: Kdn(a2-3)Gal(b1-3)GalNAc
# Method in brief: as §1
# [30] = target: Kdn(a2-3)Gal(b1-3)GlcNAc
# Method in brief: as §1
# [31] = target: Kdn(a2-3)Gal(b1-4)Glc
# Method in brief: as §1
# [32] = target: Kdn(a2-3)Gal(b1-4)GlcNAc
# Method in brief: as §1
# [33] = target: Kdn(a2-3)Gal(b1-4)[Fuc(a1-3)]GlcNAc
# Method in brief: as §1
# [34] = target: Kdn(a2-6)Gal(b1-4)GlcNAc
# Method in brief: as §1
# [35] = target: Man(a1-2)Man(a1-2)Man(a1-3)Man
# Method in brief: as §1
# [36] = target: Man(a1-2)Man(a1-2)Man(a1-6)[Man(a1-3)]Man
# Method in brief: as §1
# [37] = target: Man(a1-2)Man(a1-3)Man
# Method in brief: as §1
# [38] = target: Man(a1-2)Man(a1-3)[Man(a1-2)Man(a1-6)]Man
# Method in brief: as §1
binder,measurement,setting,value
SJCP1084 (Schistosoma japonicum) (protein) MRIINLVIISTALLLINLLQTKSQANGEDTKNGTPDDPGLTKSTELKVEVQALLKDKKTNMRVKWNENLLDNTKPEYHNLRDEACELLLQIVRSVVPLSQDDGECKDVTFTKYVVGTKDGAVNVKLTITFKDSVAINQKPMDLKLKLENDFKNLQSESTLKATKPTFTVKVEKRLIPISKPQTTPPTTAKNDASKENVGDIGGEDSTVPTAAPATAASANEEKDEGDKDNKDSQHPNVLTSNVNDRNLIIALVALMILAIGVALTAAVKQR,glycan array binding signal (z-score),[1],-0.088
same,glycan array binding signal (z-score),[2],-0.27
same,glycan array binding signal (z-score),[3],1.28
same,glycan array binding signal (z-score),[4],1.66
same,glycan array binding signal (z-score),[5],0.279
same,glycan array binding signal (z-score),[6],0.058
same,glycan array binding signal (z-score),[7],-0.466
same,glycan array binding signal (z-score),[8],2.68
same,glycan array binding signal (z-score),[9],0.016
same,glycan array binding signal (z-score),[10],-0.886
same,glycan array binding signal (z-score),[11],0.184
same,glycan array binding signal (z-score),[12],-1.25
same,glycan array binding signal (z-score),[13],-0.738
same,glycan array binding signal (z-score),[14],-0.686
same,glycan array binding signal (z-score),[15],-0.411
same,glycan array binding signal (z-score),[16],0.248
same,glycan array binding signal (z-score),[17],-0.927
same,glycan array binding signal (z-score),[18],1.12
same,glycan array binding signal (z-score),[19],0.049
same,glycan array binding signal (z-score),[20],-0.577
same,glycan array binding signal (z-score),[21],0.004
same,glycan array binding signal (z-score),[22],-1.45
same,glycan array binding signal (z-score),[23],-0.993
same,glycan array binding signal (z-score),[24],-0.608
same,glycan array binding signal (z-score),[25],0.927
same,glycan array binding signal (z-score),[26],-0.211
same,glycan array binding signal (z-score),[27],-0.023
same,glycan array binding signal (z-score),[28],0.716
same,glycan array binding signal (z-score),[29],1.08
same,glycan array binding signal (z-score),[30],-0.193
same,glycan array binding signal (z-score),[31],-0.188
same,glycan array binding signal (z-score),[32],0.128
same,glycan array binding signal (z-score),[33],0.524
same,glycan array binding signal (z-score),[34],-0.175
same,glycan array binding signal (z-score),[35],-0.684
same,glycan array binding signal (z-score),[36],0.854
same,glycan array binding signal (z-score),[37],-1.17
same,glycan array binding signal (z-score),[38],-0.874

# 3 entries from above, with tabs:
binder	measurement	setting	value
SJCP1084 (Schistosoma japonicum) (protein) MRIINLVIISTALLLINLLQTKSQANGEDTKNGTPDDPGLTKSTELKVEVQALLKDKKTNMRVKWNENLLDNTKPEYHNLRDEACELLLQIVRSVVPLSQDDGECKDVTFTKYVVGTKDGAVNVKLTITFKDSVAINQKPMDLKLKLENDFKNLQSESTLKATKPTFTVKVEKRLIPISKPQTTPPTTAKNDASKENVGDIGGEDSTVPTAAPATAASANEEKDEGDKDNKDSQHPNVLTSNVNDRNLIIALVALMILAIGVALTAAVKQR	glycan array binding signal (z-score)	[26]	-0.211
same	glycan array binding signal (z-score)	[27]	-0.023
same	glycan array binding signal (z-score)	[28]	0.716
